In publication PMC9762571:

What was measured:
Test in all cases: co-IP; anti-HA magnetic beads overnight at 4°C on lysates (50 mM Tris, 150 mM NaCl, 0.2% Triton X-100, pH 7.5) of primary MEFs or HFFs infected for 24 h with RH ROP1-HA, PRU ROP1-HA or PRU 202200-HA; Western blot with anti-C1QBP
[1] = target: HA-tagged rhoptry protein TGME49_202200 (PRU 202200-HA) (Toxoplasma gondii (PRU strain))
[2] = target: ROP1-HA of the T. gondii RH strain (RH ROP1-HA) (Toxoplasma gondii (RH strain))
[3] = target: ROP1-HA of the T. gondii PRU strain (PRU ROP1-HA) (Toxoplasma gondii (PRU strain))

B1: Complement Component 1q Binding Protein (C1QBP), mouse (protein, UniProt O35658 71-278)
chain: LHTEGDKAFVEFLTDEIKEEKKIQKHKSLPKMSGDWELEVNGTEAKLLRKVAGEKITVTFNINNSIPPTFDGEEEPSQGQKAEEQEPERTSTPNFVVEVTKTDGKKTLVLDCHYPEDEIGHEDEAESDIFSIKEVSFQATGDSEWRDTNYTLNTDSLDWALYDHLMDFLADRGVDNTFADELVELSTALEHQEYITFLEDLKSFVKNQ
binding [1]: no binding | binding [2]: binds | binding [3]: binds

These are yes or no findings as the source states them, for the method shown. Binding seen in cells or lysates may run through a third protein. For part of these data: Binding can be weak; no strength is given.
